The source of these data is PMC8027411.

The target of assay [1] is T1, FLOT2-Flag (human (cDNA from HEK-293T cells)) (UniProt Q14254).
T1 sequence: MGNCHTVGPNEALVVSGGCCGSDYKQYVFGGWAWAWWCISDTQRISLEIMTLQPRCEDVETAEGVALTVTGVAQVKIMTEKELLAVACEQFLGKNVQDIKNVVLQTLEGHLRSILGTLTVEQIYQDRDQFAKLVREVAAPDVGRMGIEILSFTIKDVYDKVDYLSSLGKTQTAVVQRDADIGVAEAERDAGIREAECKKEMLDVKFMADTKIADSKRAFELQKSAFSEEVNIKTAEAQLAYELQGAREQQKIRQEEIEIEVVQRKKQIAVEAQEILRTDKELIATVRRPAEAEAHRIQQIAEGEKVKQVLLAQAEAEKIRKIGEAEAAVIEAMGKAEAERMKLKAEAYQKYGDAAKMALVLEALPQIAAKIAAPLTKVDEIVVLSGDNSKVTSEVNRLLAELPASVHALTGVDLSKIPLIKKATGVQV
The assay is described as follows: co-IP; tagged proteins co-expressed in transfected cells (HEK-293T in Fig. 4c, d), RIPA lysates, anti-Flag or anti-HA beads overnight at 4 °C, five washes; western blot.

Assay [2] deals with T2, FLOT1-Flag (human (cDNA from HEK-293T cells)) (UniProt O75955).
T2 sequence: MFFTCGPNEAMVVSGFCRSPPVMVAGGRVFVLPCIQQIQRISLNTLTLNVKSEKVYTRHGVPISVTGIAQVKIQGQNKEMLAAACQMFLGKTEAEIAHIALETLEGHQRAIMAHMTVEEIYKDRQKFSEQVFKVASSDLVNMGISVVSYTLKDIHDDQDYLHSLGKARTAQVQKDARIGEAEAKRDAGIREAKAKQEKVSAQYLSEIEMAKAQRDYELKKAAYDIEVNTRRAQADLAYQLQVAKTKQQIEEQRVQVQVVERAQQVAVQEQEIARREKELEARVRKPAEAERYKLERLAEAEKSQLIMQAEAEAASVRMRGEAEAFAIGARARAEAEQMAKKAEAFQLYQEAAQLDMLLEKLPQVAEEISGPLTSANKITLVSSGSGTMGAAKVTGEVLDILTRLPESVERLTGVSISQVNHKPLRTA
The assay is described as above.

No constants are given. Whether binding was seen depends on the method and setting. Binding seen in cells or lysates may run through a third protein. A result given as binding can be weak or reduced; the word gives no strength. Where a sequence is shown, tags or fusion partners need not be part of it.

As to IGF1R-HA (receptor), the binding result in assay [1] and in assay [2] was “binds” in each case.
